Measurements: PMC12670160, “A drug-repurposing screen of FDA- and EMA-approved drugs identifies two NF-κB inhibitors active against eumycetoma” (Journal of Antimicrobial Chemotherapy, 2025)
Structures can show the parent of a compound that is named as a salt. Where two headings read alike, the source gives them in different places. The campaign covered roughly 5,300 compounds. About 130 (2.5%) showed an effect of 50% or more. The list shows a part of the results. Square brackets hold non-standard residues; d marks the D form. Peptide text beside a SMILES is read from it.

System: M. mycetomatis strain mm55
Settings: primary screen, metabolic activity vs growth control, 96 h, 2 µM, inhibitor

Structure (SMILES): Cc1coc2c1C(=O)C(=O)c1c-2ccc2c1CCCC2(C)C [ONC0005254, tanshinone iia tanshinone b]
- % viability: 103.2%

Structure (SMILES): CNCCCC12CCC(c3ccccc31)c1ccccc12 [ONC0005591, maprotiline hydrochloride]
- % viability: 104.4%

Structure (SMILES): CCc1c(O)cc(O)c(C(=O)c2ccc(OCCN3CCOCC3)c(OC)c2)c1CC(=O)N(CCOC)CCOC [ONC0004413, kw2478]
- % viability: 116.6%

Structure (SMILES): O=C1Cc2c([nH]c3ccc(Br)cc23)-c2ccccc2N1 [ONC0003056, kenpaullone]
- % viability: 78.06%

Structure (SMILES): COc1ccc(CCN2CCN(CCCc3ccccc3)CC2)cc1OC [ONC0000181, cutamesine]
- % viability: 57.86%

Structure (SMILES): OC(c1cc(C(F)(F)F)nc2c(C(F)(F)F)cccc12)C1CCCCN1 (stereo not drawn) [ONC0002823, mefloquine hydrochloride]
- % viability: 88.08%

Structure (SMILES): COc1ccc2c(c1)c(CC(=O)N1CCOCC1)c(C)n2C(=O)c1ccc(Cl)cc1 [ONC0005055, bml190]
- % viability: 69.14%

Structure (SMILES): CC(C)(C)n1nc(-c2cccc3ccccc23)c2c(N)ncnc21 [ONC0000858, 1naphthylpp1]
- % viability: 54.79%

Structure (SMILES): C[C@@H]1C[C@H]2[C@@H]3C[C@H](F)C4=CC(=O)C=C[C@]4(C)[C@@]3(Cl)[C@@H](O)C[C@]2(C)[C@H]1C(=O)COC(=O)C(C)(C)C [ONC0002815, clocortolonepivalate]
- % viability: 83.51%

Structure (SMILES): O=C(O[C@@H]1Cc2c(O)cc(O)cc2O[C@@H]1c1ccc(O)c(O)c1)c1cc(O)c(O)c(O)c1 [ONC0001169, epicatechin gallate]
- % viability: 138%

Structure (SMILES): COC(=O)N[C@H](C(=O)N1CC2(CC2)C[C@H]1c1ncc(-c2ccc3c(c2)C(F)(F)c2cc(-c4ccc5nc([C@@H]6[C@H]7CC[C@H](C7)N6C(=O)[C@@H](NC(=O)OC)C(C)C)[nH]c5c4)ccc2-3)[nH]1)C(C)C [ONC0001967, ledipasvir]
- % viability: 73.81%

Structure (SMILES): CCCCCCC(=O)OC1CC(C)(C)NC(C)(C)C1 [ONC0000017, tmph]
- % viability: 78.92%

Structure (SMILES): Cc1c(C)c2c(c(C)c1OC(=O)CCC(=O)O)CC[C@@](C)(CCC[C@H](C)CCC[C@H](C)CCCC(C)C)O2 [ONC0002768, dalphatocopheryl succinate]
- % viability: 141.6%

Structure (SMILES): CCCCCC(=O)O[C@]1(C(C)=O)CC[C@H]2[C@@H]3CCC4=CC(=O)CC[C@]4(C)[C@H]3CC[C@@]21C [ONC0000554, hydroxyprogesterone caproate]
- % viability: 87.95%

Structure (SMILES): Oc1cc2c(cc1O)CN(C(=S)NCCc1ccc(Cl)cc1)CCC2 [ONC0003537, capsazepine]
- % viability: 106.3%

Structure (SMILES): CC1(C)C[C@@H]1C(=O)N/C(=C\CCCCSC[C@H](N)C(=O)O)C(=O)O [ONC0000332, cilastatin sodium]
- % viability: 62.86%

Structure (SMILES): Cc1cc(C)cc(OCC2CNC(=O)O2)c1 (stereo not drawn) [ONC0003959, metaxalone]
- % viability: 81.5%

Structure (SMILES): O[C@H]1CC[C@H](Nc2ncc3nc(Nc4c(F)cc(F)cc4F)n([C@H]4CCOC4)c3n2)CC1 [ONC0002078, tanzisertib]
- % viability: 56.93%

Structure (SMILES): c1nc2nc(Nc3ccc(N4CCOCC4)cc3)nc(NC3CCCCC3)c2[nH]1 [ONC0000909, reversine]
- % viability: 87.07%

Structure (SMILES): CCc1oc2ccccc2c1C(=O)c1ccc(OCC(=O)O)cc1 [ONC0005583, kt433]
- % viability: 75.49%

Structure (SMILES): CCN(CCCOc1ccc2c(Nc3cc(CC(=O)Nc4cccc(F)c4)n[nH]3)ncnc2c1)CCOP(=O)(O)O [ONC0002222, azd1152]
- % viability: 73.5%

Structure (SMILES): O=C(O)c1ccc(-c2ccc3cc(C45CC6CC(CC(C6)C4)C5)c(O)cc3c2)cc1 [ONC0003535, cd1530]
- % viability: 106.7%

Structure (SMILES): O=C(O)[C@H](O)[C@@H](O)[C@H](O[C@@H]1O[C@H](CO)[C@H](O)[C@H](O)[C@H]1O)[C@H](O)CO [ONC0002742, lactobionic acid]
- % viability: 93.71%

Structure (SMILES): COc1ccc(NC(=O)c2ccc(C(=N)N(C)C)cc2)c(C(=O)Nc2ccc(Cl)cn2)c1 [ONC0002531, betrixaban]
- % viability: 64.85%

Structure (SMILES): CC(C)OC(=O)CNC(=O)[C@H](CS)NC(=O)CC[C@H](N)C(=O)O [ONC0002985, glutathionemonoisopropylester]
- % viability: 70.59%

Structure (SMILES): CC(=O)NCC(=O)N[C@H](CCC(=O)O)C(=O)O [ONC0001750, nacetylglycyldglutamicacid] (Ac-Gly-[dE]-OH)
- % viability: 65.78%

Structure (SMILES): C[C@@H](O)[C@H]1C(=O)N2C(C(=O)O)=C(S[C@@H]3CN[C@H](C(=O)N(C)C)C3)[C@H](C)[C@H]12 [ONC0004098, meropenem]
- % viability: 114.1%

Structure (SMILES): O=C(O)CCNc1cc(N2CCc3ccccc3CC2)nc(-c2cccnc2)n1 [ONC0001873, gskj2]
- % viability: 86.07%

Structure (SMILES): CCN(CC)C(=O)/C(C#N)=C/c1cc(O)c(O)c([N+](=O)[O-])c1 [ONC0004538, entacapone]
- % viability: 54.37%

Structure (SMILES): C[C@H]1OC(O)[C@H](O)[C@H](O)[C@H]1O (stereo partly drawn) [ONC0004779, l rhamnose monohydrate]
- % viability: 103.9%

Structure (SMILES): CN(C)CCN(C)CCc1ccc(Cl)c(Cl)c1 [ONC0000240, bd1047]
- % viability: 69.13%

Structure (SMILES): S=C(NCCc1ccccn1)Nc1ccc(Br)cn1 [ONC0002520, trovirdine]
- % viability: 50.89%

Structure (SMILES): CCCCCCCCCCCCOS(=O)(=O)O [ONC0002181, sodiumdodecylsulfate]
- % viability (Madurella mycetomatis metabolic activity at 2µM (%)): 96.71%

Structure (SMILES): C[C@@H]1O[C@@H](OC[C@H]2O[C@@H](Oc3c(-c4ccc(OCCO)c(OCCO)c4)oc4cc(OCCO)cc(O)c4c3=O)[C@H](O)[C@@H](O)[C@@H]2O)[C@H](O)[C@H](O)[C@H]1O [ONC0005511, troxerutin]
- % viability: 76.48%

Structure (SMILES): Nc1nc(N)nc(NC2CC2)n1 [ONC0003991, cyromazine]
- % viability: 70.81%

Structure (SMILES): CCCC(=O)C1CCN(c2ncnc3c2CN(C(=O)c2ccc(-c4ccccc4)cc2)CC3)CC1 [ONC0001406, pkthpp]
- % viability: 99.71%
